Laboratory results reported in the supplement of paper PMC10338343.
± gives the standard deviation. The entries are a selection whose mix differs from that of the whole data set. Many entries were measured with a wide error.

test system: EfPiwi piRISC loaded with piRNA #1 (26 nt); experiment: pre-steady-state target cleavage rate (min^-1); guide: piRNA #1 5'p-UGAGGUAGUAGGUUGUAUAGUAUCCA; MIWI and MILI are mouse PIWI proteins and EfPiwi is from a freshwater sponge; tags in brackets are library labels; higher = faster piRNA-guided slicing of the target; settings: auxiliary factor: 500 nM Ephydatia muelleri Gtsf1
Method in brief: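 Active affinity-purified piRISC carrying one synthetic guide (1 nM) was mixed with a transcribed, DNA-blocked target RNA library […] in HEPES–potassium acetate buffer at 33 °C for 0–8 or 0–960 min, with or without 500 nM GTSF1 partner protein. Uncleaved targets were then sequenced and normalised to depth and to weakly complementary targets. Three trials were pooled, and k3 was capped at 0.0001 min^-1. A burst-and-steady-state fit was applied to obtain the pre-steady-state cleavage rate.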

| Sequence | pre-steady-state target cleavage rate |
| --- | --- |
| GGAGACCAUACUAUCAACCUACUACCUCA | 0.0101 ± 0.005 |
| GGAGACCUAUGAUAUGUUCCUACUACCCCA | 0.000529 ± 0.012 |
| GGAGACCUUACUAUACAACCUACUACAUCA | 0.00197 ± 0.0022 |
| GGAGUGGAUACAAUACAACCUACUAGCUCA | 0.00216 ± 0.0014 |
| GGAGUGGAUUCUAUACAACGUACUACCUCA | 0.00313 ± 0.0019 |
| GGAGACCUUACUAUACAACCUCCUACCUCA | 0.00545 ± 0.003 |
| GGAGACCUAUGUAUACAACCUACGUACCUCA | 0.000135 ± 0.024 |
| GGAGUGGAUACUAUACAAGCUACUACCUCA | 0.008 ± 0.0032 |
| GGAGACCUUACUAUACAACCUACUAGCUGA | 0.00236 ± 0.0044 |
| GGAGACCUUACUAUACAACCUACAACCUGA | 0.00119 ± 0.0036 |
| GGAGUGGAUACUAUACAACCUACUACUUCA | 0.104 ± 0.042 |
| GGAGACCUAUGAUAACAACCUCCUACCUCA | 0.00112 ± 0.0078 |
| GGAGUGGAAACUAUACAACCUACAACCUCA | 0.00221 ± 0.0036 |
| GGAGACCUAUCUAUACAUCCUACUAGCUCA | 0.0025 ± 0.0038 |
| GGAGACCAUACUAUACAACCUACAACCACA | 0.00362 ± 0.0052 |
| GGAGACCUAUGUAUACAAGCUAGUACCUCA | 0.00105 ± 0.0067 |
| GGAGACCUAAGUAUACAACCUAGUACCUCA | 0.00297 ± 0.003 |
| GGAGACGAUACUAUACAAGCAACUACCUCA | 0.0046 ± 0.003 |
| GGAGACGAUACUAUACAACUUACUACCUCA | 0.0183 ± 0.0077 |
| GGAGUGGAUUCUAUACAACCAACUACCUCA | 0.00252 ± 0.0027 |

| Sequence | pre-steady-state target cleavage rate |
| --- | --- |
| GGAGAGGAUACUUUACAACCUACUACCACA | 0.0019 ± 0.0011 |
| GGAGACCUUACUAUACAACCUUCUACCACA | 0.00207 ± 0.0036 |
| GGAGAGGAUACUAUAGUUCCUACUACCUCA | 0.00146 ± 0.0063 |
| GGAGACCUAAGUAUACAUCCUACUACCUCA | 0.00219 ± 0.0029 |
| GGAGACCUAACUAUACAACCUACUACUCA | 0.0025 ± 0.0044 |
| GGAGACGAUACAAUACAACCAACUACCUCA | 0.0037 ± 0.0029 |
| GGAGACGAUACUUAUACAACCUACUACCUCA | 0.0473 ± 0.017 |
| GGAGUGGAUACUAUACAACCUACUACCCUCA | 0.00587 ± 0.002 |
| GGAGUGGAUACUAUACAACCUACUUGGUCA | 0.00319 ± 0.0033 |
| GGAGAGCAUACUAUACAACCUACUACCACA | 0.00318 ± 0.0021 |
| GGAGACGAUUCUUUACAACCUACUACCUCA | 0.00312 ± 0.005 |
| GGAGAGGAUACUAUAGUACCUACUACCUCA | 0.00261 ± 0.004 |
| GGAGACCAUACUAUCACAACCUACUACCUCA | 0.0399 ± 0.014 |
| GGAGAGGAUACUAUACAAGGAACUACCUCA | 0.00121 ± 0.0054 |
| GGAGACCAUACUAUACAACCUAGAUGGAGA [g9:g23:cont:t1A] | 0.00356 ± 0.0037 |
| GGAGACCAUACAAUACAACCUAGUACCUCA | 0.000855 ± 0.0032 |
| GGAGACCUAACUAUAGAUCCUACUACCUCA | 0.0011 ± 0.0062 |
| GGAGACCUUACUUUACAACCUACUAGCUCA | 0.00253 ± 0.0039 |
| GGAGUGGAUACUGUACAACCUACUACCUCA | 0.109 ± 0.039 |
| GGAGACCUAUCUAUACAACCUACAACGUCA | 0.0012 ± 0.0052 |

Copied from the list:
Value for GGAGACCAUACAAUACAACCUAGUACCUCA under pre-steady-state target cleavage rate: 0.000855 ± 0.0032
Value for GGAGACGAUACAAUACAACCAACUACCUCA under pre-steady-state target cleavage rate: 0.0037 ± 0.0029
Value for GGAGUGGAUACUAUACAACCUACUACUUCA under pre-steady-state target cleavage rate: 0.104 ± 0.042
